Assay results taken from PMC7538161.
No constants are given. Whether binding was seen depends on the method and setting. Some entries that bind do so weakly or less than the wild type.

Biological target: T1, human CaMKII-α hub domain (human), Q9UQM7
T1 chain: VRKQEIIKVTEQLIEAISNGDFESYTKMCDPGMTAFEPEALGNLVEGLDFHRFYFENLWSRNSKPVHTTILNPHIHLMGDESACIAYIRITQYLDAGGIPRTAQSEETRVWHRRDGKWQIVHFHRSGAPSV
Assay: native MS; hub 120 µM (subunits) mixed with 1 µM to 1 mM unphosphorylated peptide, ~400 mM ammonium acetate, incubated 5 min at room temperature; nanoelectrospray, sample cone voltage 50 V, source 80°C; both purified
Conditions: remark: other sources report otherwise

LKEFNAERKLEGAILTTMLA [Peptide C] was tested, and the binding was “binds”.
